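Methionyl-tRNA synthetase (putative), Leishmania donovani (UniProt E9BF75). Primary screen of methionyl-tRNA synthetase; the read-out is not stated. The test concentration is not given. The values are filed as inhibition. Size under these conditions: about 68,000 compounds, about 24 of them at 50% or above in at least one test.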

The chains behind the UniProt entries cited, without tags or fusion partners.
UniProt E9BF75, entry or part of it: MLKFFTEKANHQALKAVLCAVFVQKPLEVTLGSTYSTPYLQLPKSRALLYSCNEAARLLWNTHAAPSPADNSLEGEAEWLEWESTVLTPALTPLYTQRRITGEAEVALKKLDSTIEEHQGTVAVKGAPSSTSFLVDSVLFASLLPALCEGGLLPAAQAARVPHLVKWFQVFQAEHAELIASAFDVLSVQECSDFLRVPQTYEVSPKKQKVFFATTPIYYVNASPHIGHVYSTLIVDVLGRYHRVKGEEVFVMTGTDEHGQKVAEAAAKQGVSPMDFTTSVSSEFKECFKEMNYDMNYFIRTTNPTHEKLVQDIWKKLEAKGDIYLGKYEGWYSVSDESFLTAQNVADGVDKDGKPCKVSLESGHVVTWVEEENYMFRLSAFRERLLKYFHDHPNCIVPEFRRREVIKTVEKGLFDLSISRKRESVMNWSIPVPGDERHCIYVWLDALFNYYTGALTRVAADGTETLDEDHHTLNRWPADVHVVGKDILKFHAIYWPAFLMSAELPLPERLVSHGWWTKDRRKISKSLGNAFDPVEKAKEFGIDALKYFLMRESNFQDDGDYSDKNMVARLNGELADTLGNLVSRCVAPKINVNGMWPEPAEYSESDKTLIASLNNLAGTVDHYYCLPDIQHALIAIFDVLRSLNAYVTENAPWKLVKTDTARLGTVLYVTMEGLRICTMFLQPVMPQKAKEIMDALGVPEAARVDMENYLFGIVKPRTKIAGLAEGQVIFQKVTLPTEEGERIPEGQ

Results are percentages, as filed.
The record does not define 0% and 100%; most values in the screen are far below 50% and negative numbers occur (in some assays of this library far below -100).
This is an unselected part of the compounds tested.

- CC(C)C[C@@H](C(N)=O)n1cc(-c2cncnc2)nn1 | 10.23%
- Cc1nnc(NC(=O)C2CSCN2C(=O)C2CCCC2)s1 (stereo not given) | 11.91%
- Cc1nn(C)c(C)c1NC(=O)c1cccc(CN2CCS(=O)(=O)CC2)c1 | 15.76%
- CCC(C)N1CCC2(CC1)CN(c1cncnc1)C(=O)CO2 (stereo not given) | 6.628%
- COCC(NC(=O)NCc1sc(C)nc1C)c1ccco1 (stereo not given) | 10.14%
- CN(C)CCNC(=O)CCC1CCN(C(=O)c2ccc(Cl)cc2O)CC1 | 13.55%
- COc1c(C2CCCN2c2ncnc3sccc23)c(C)nn1C (stereo not given) | 12.88%
- O=C(NCCc1ccccn1)C1=NN(c2ccccc2)C(=O)CN1 | 4.225%
- Cc1ncc(C(=O)N2CCC(N3C[C@@H](C)O[C@@H](C)C3)CC2)c(=O)[nH]1 | 3.733%
- CCC(CC)CN1CCC2(CCC(=O)N2OCc2ccccc2F)CC1 | -5.842%
- CC(=O)NCc1nn(C)c2c1CN(Cc1ccsc1)C2 | 5.944%
- COc1ccc(S(=O)(=O)N2CCC(OCc3ccccn3)C2)cc1Br (stereo not given) | 20.07%
- Cn1cc(C2CCCN2C(=O)c2ccc(Br)o2)cn1 (stereo not given) | 11.81%
- CN1CCC(c2cccc(CCC(=O)NCC(N)=O)n2)CC1 | 7.812%
- CCCOc1ccc(NC(=O)NCCC(=O)N(C)C)cc1Cl | 10.34%
- Cc1cnn(CC(C)NCc2ccc(OCC(N)=O)cc2)c1 (stereo not given) | 7.163%
- COC(=O)CCN(C)C(=O)c1ccc(-c2cscn2)cc1 | 15.84%
- CCC(=O)Nc1c(C)nn(COc2cccc(F)c2)c1C | 12.75%
- O=C(CCCc1cn[nH]c1)N1C[C@@H](CN2CCOCC2)[C@@H](CO)C1 | 1.478%
- CSCCC(Nc1nc(C)cc(C)n1)C(=O)NC(C)(C)CO (stereo not given) | 12.83%
- CCn1ccnc1CNCc1ccc(C)cc1OC(C)(C)C | 9.756%
- O=C(NCc1cc(-c2ccccc2)no1)NC1CCCCNC1=O (stereo not given) | 13.84%
- CC(C)n1ncc2cc(NC(=O)N3CCC(N4CCCC4)C3)cnc21 (stereo not given) | 18.73%
- COc1ccc(CNc2cnn(CC(F)F)c2)cc1 | 10.54%
- CN1CCN(C(=O)N2CCC3(CCCN(C4CCOCC4)C3=O)C2)CC1 (stereo not given) | 17.18%
- O=c1[nH]c(NCCO)nc2c1C1(CCCCC1)Cc1ccccc1-2 | 20.41%
- CN(C)S(=O)(=O)N1CCN(C(=O)c2ccc3ccn(C)c3c2)CC1 | 10.37%
- CC(C)CN(Cc1ccsc1)C(=O)CCCn1cncn1 | 7.436%
- CCOC1CCCN(C(=O)c2[nH]nc(C)c2Br)C1 (stereo not given) | 5.344%
- Cc1noc(C(C)C)c1C(=O)NCc1cccc(CN(C)C)c1 | 12.82%
- c1cnn(CCN2CCOC(Cn3cccn3)C2)c1 (stereo not given) | 16.39%
- Cn1nnc2c1CCN(C(=O)CC1CC1)C2COCCN1CCCC1 (stereo not given) | -0.7407%
- Fc1cccc2ncnc(NCC3(N4CCOCC4)CCSC3)c12 (stereo not given) | 12.77%
- O=C(c1ccc2c(c1)OCO2)N1CCN(c2cnccn2)CC1 | 12.27%
- Fc1cccnc1N1CCCC(c2nccs2)C1 (stereo not given) | 5.426%
- Cc1cnn(C2CCCN(C(=O)c3ccc4c(c3)CCC4)C2)c1 (stereo not given) | 19.66%
- CC(C)N(C)Cc1cncc2c1CCN(Cc1ccoc1)C2 | 11.37%
- O=C(NC(c1ccccc1)c1cccnc1)C1CC1 (stereo not given) | 9.561%
- CC(=O)N1CCN(c2cc(-n3cnc(C)c3C)nc(C)n2)CC1 | 9.22%
- Cc1ccc(CN2CCc3c(COCC4CC4)nn(C)c3C2)s1 | 3.297%
- CCn1ccnc1CN1CCCN(C(=O)c2cc(C)nn2CC)CC1 | 12.11%
- COc1ccc2nnc(CCC(=O)Nc3nc(C)c(C)s3)n2n1 | 18.82%
- O=C1CC(c2ccncc2)c2c(c(C(=O)O)cn2-c2ccc(F)cc2)N1 (stereo not given) | 17.84%
- Cc1cccnc1CC(C)N(C)C(=O)c1cccs1 (stereo not given) | 2.466%
- CC(C)CN1CCc2[nH]cnc2C12CCN(C(=O)c1cncn1C)CC2 | 10.56%
- COc1cc(N2C[C@@H]3COC[C@]3(COCc3ccncc3)C2)ncn1 | 5.333%
- CC(=O)NCCC(Cc1ccccc1)c1ccco1 (stereo not given) | 18.33%
- CN1[C@H]2CC[C@@H]1CN(C(=O)c1ccc(-c3ccccc3)[nH]1)CC2 | 24.28%
- CC(C)NS(=O)(=O)c1cc(C(=O)O)cc(-c2ccc(CN(C)C)cc2)c1 | 8.55%
- COCCN1CCC(CN(Cc2ccncc2)C2CCCCC2)CC1 | 9.429%
- CC(C)c1nc(CN2CCc3onc(-c4cccc(F)c4)c3C2)no1 | 15.35%
- CCC(CC)(CNC(=O)OC(C)(C)C)NC(=O)C1CCCO1 (stereo not given) | 9.966%
- Cc1ccc(-c2nc(CN3CCc4nn(C)c(=O)cc4C3)co2)cc1 | 13.07%

Some entries from above, unchanged:

| Compound | inhibition |
|---|---|
| `Cc1cccnc1CC(C)N(C)C(=O)c1cccs1` (stereo not given) | 2.466% |
| `COc1c(C2CCCN2c2ncnc3sccc23)c(C)nn1C` (stereo not given) | 12.88% |
| `CCC(CC)CN1CCC2(CCC(=O)N2OCc2ccccc2F)CC1` | -5.842% |
| `CCn1ccnc1CN1CCCN(C(=O)c2cc(C)nn2CC)CC1` | 12.11% |

Measurements from “University of Dundee, Small-Polar-MMV Screening Library” (2021), ChEMBL document CHEMBL3988442.